Assay results reported in article PMC10079970.
No constants are given. Whether binding was seen depends on the method and setting. In cells and extracts the contact can be indirect. A yes stands for co-enrichment or nearness to the bait. Other partners may have been found. Where a sequence is shown, tags or fusion partners need not be part of it.

Chains of the proteins cited; added tags and fusions are not shown. Residues count along the entry.
UniProt Q9UBS4, residues 23-358: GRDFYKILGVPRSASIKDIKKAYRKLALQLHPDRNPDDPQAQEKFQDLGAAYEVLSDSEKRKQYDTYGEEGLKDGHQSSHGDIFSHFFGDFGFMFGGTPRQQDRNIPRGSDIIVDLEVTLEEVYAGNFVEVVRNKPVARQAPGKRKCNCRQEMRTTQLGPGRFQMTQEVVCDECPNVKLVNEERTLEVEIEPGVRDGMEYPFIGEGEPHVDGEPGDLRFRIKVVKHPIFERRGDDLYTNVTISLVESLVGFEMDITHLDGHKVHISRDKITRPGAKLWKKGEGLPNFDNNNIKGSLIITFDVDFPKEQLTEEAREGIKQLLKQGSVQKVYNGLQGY
UniProt P27824, residues 21-592: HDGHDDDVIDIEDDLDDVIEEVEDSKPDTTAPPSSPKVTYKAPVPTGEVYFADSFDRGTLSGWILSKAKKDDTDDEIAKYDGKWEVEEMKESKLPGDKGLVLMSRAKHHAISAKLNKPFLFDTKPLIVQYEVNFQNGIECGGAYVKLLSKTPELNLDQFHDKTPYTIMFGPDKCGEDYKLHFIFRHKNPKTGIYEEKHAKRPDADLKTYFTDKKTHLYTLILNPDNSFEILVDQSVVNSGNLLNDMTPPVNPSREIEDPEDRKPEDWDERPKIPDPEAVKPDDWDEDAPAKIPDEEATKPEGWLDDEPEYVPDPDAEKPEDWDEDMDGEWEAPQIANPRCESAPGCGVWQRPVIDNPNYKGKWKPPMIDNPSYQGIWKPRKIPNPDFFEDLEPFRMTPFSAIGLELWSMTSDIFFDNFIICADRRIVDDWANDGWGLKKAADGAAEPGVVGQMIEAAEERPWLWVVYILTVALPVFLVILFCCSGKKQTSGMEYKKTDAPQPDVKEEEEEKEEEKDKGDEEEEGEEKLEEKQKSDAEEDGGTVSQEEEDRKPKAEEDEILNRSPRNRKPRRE

Biological target: T1, V5-FLAG-tagged wild-type β-glucocerebrosidase (GCase) (human) (UniProt P04062)
T1 sequence: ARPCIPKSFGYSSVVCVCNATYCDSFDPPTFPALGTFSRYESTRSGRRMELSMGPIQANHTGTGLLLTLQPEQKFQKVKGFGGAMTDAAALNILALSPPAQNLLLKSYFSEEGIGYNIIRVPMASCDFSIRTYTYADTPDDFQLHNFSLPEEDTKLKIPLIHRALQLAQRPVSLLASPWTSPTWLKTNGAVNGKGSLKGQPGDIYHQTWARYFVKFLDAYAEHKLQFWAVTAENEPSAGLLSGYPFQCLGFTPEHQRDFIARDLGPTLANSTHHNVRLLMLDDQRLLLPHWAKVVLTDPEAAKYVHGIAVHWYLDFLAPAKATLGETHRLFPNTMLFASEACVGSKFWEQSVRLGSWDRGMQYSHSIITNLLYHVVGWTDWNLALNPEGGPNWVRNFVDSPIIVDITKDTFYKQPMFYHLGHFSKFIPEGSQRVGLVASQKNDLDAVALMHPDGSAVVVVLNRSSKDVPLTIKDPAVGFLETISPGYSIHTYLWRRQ
Assay: affinity purification with mass spectrometry; anti-FLAG M2 agarose IP of V5-FLAG-GCase from T-Rex HEK lysate (1x TBS pH 7.4, 0.5% NP40), 2 h at 4 °C, FLAG peptide elution, TMT labelling and LC-MS; empty-vector cells as control; interactors: ≥2 unique peptides, enriched 1.5-fold over control

Substance | binding
calreticulin (from UniProt P27797 18-417) | binds
DNAJB11 (from UniProt Q9UBS4 23-358) | binds
calnexin (from UniProt P27824 21-592) | binds
